Consider two molecules from publication doi:10.1101/2022.03.08.483512.

In assay [1] the target is human GABAA receptor α1 subunit, wild type (human). The assay can be described thus: co-IP.
In assay [2] the target is human GABAA receptor α1 subunit carrying the A322D variant (human). As to the kind of experiment: co-IP.

Results are given in words; binding and its absence hold for the method and conditions named. Binding seen in cells or lysates may run through a third protein. Binding can be weak; no strength is given.

B1: ERLIN2 (protein, UniProt O94905 1-339)
chain: MAQLGAVVAVASSFFCASLFSAVHKIEEGHIGVYYRGGALLTSTSGPGFHLMLPFITSYKSVQTTLQTDEVKNVPCGTSGGVMIYFDRIEVVNFLVPNAVYDIVKNYTADYDKALIFNKIHHELNQFCSVHTLQEVYIELFDQIDENLKLALQQDLTSMAPGLVIQAVRVTKPNIPEAIRRNYELMESEKTKLLIAAQKQKVVEKEAETERKKALIEAEKVAQVAEITYGQKVMEKETEKKISEIEDAAFLAREKAKADAECYTAMKIAEANKLKLTPEYLQLMKYKAIASNSKIYFGKDIPNMFMDSAGSVSKQFEGLADKLSFGLEDEPLETATKEN
Turning to B1, the binding result in assay [1] and in assay [2] was “binds” in each case.

B2: UNC45A (protein, UniProt Q9H3U1 1-944)
chain: MTVSGPGTPEPRPATPGASSVEQLRKEGNELFKCGDYGGALAAYTQALGLDATPQDQAVLHRNRAACHLKLEDYDKAETEASKAIEKDGGDVKALYRRSQALEKLGRLDQAVLDLQRCVSLEPKNKVFQEALRNIGGQIQEKVRYMSSTDAKVEQMFQILLDPEEKGTEKKQKASQNLVVLAREDAGAEKIFRSNGVQLLQRLLDMGETDLMLAALRTLVGICSEHQSRTVATLSILGTRRVVSILGVESQAVSLAACHLLQVMFDALKEGVKKGFRGKEGAIIVDPARELKVLISNLLDLLTEVGVSGQGRDNALTLLIKAVPRKSLKDPNNSLTLWVIDQGLKKILEVGGSLQDPPGELAVTANSRMSASILLSKLFDDLKCDAERENFHRLCENYIKSWFEGQGLAGKLRAIQTVSCLLQGPCDAGNRALELSGVMESVIALCASEQEEEQLVAVEALIHAAGKAKRASFITANGVSLLKDLYKCSEKDSIRIRALVGLCKLGSAGGTDFSMKQFAEGSTLKLAKQCRKWLCNDQIDAGTRRWAVEGLAYLTFDADVKEEFVEDAAALKALFQLSRLEERSVLFAVASALVNCTNSYDYEEPDPKMVELAKYAKQHVPEQHPKDKPSFVRARVKKLLAAGVVSAMVCMVKTESPVLTSSCRELLSRVFLALVEEVEDRGTVVAQGGGRALIPLALEGTDVGQTKAAQALAKLTITSNPEMTFPGERIYEVVRPLVSLLHLNCSGLQNFEALMALTNLAGISERLRQKILKEKAVPMIEGYMFEEHEMIRRAATECMCNLAMSKEVQDLFEAQGNDRLKLLVLYSGEDDELLQRAAAGGLAMLTSMRPTLCSRIPQVTTHWLEILQALLLSSNQELQHRGAVVVLNMVEASREIASTLMESEMMEILSVLAKGDHSPVTRAAAACLDKAVEYGLIQPNQDGE
With B2, the binding entry in assay [1] and in assay [2] was “binds” in each case.
